For some of these results: At least one structure is not confirmed: it was looked up by name or label, or the drawing left a doubt. Some entries share one result that the patent states for a list of compounds. Where a SMILES comes first, the peptide text is derived from it. Bridges are numbered along the chain shown (N, C = ends).
Key:
[1] = target: T1, adenylyl cyclase, ROS 17/2 cells (Rattus norvegicus, UniProt P25961); test: Adenylyl cyclase stimulation, [3H]-cyclic AMP production in ROS 17/2 cells; type: cell-based; conditions: concentration for half-maximal increase in AC activity
T1 sequence (P25961 27-591): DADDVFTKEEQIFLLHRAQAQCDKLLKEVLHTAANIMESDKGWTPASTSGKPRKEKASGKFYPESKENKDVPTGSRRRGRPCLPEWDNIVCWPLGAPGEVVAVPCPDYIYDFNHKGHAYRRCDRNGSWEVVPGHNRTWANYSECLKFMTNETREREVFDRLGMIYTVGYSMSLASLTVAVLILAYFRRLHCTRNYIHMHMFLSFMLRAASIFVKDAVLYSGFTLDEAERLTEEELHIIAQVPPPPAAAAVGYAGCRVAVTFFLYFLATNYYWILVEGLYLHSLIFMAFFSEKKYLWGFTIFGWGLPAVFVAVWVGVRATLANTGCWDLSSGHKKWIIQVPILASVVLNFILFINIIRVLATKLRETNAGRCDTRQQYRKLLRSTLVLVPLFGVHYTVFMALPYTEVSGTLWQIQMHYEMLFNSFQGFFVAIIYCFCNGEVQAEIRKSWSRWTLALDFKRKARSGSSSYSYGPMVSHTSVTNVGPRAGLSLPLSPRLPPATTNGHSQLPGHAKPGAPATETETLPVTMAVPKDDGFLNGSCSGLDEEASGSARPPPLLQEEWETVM

[2] = tested on: anesthetized female Sprague-Dawley rats; test: Hypotensive effect, tail artery pressure in anaesthetized rats

In the case of `CC[C@H](C)[C@H](NC(=O)[C@@H]1CCCCNC(=O)CC[C@H](NC(=O)[C@@H](NC(=O)[C@H](CCCNC(=N)N)NC(=O)[C@H](CCC(=O)O)NC(=O)[C@H](CCSC)NC(=O)[C@H](CO)NC(=O)[C@H](CC(N)=O)NC(=O)[C@H](CC(C)C)NC(=O)[C@H](Cc2c[nH]cn2)NC(=O)[C@H](CCCCN)NC(=O)CNC(=O)[C@H](CC(C)C)NC(=O)[C@H](CC(N)=O)NC(=O)[C@H](Cc2c[nH]cn2)NC(=O)[C@H](CCSC)NC(=O)[C@H](CC(C)C)NC(=O)[C@H](CCC(N)=O)NC(=O)[C@@H](NC(=O)[C@H](CCC(=O)O)NC(=O)[C@H](CO)NC(=O)[C@@H](NC(=O)[C@@H](N)CO)C(C)C)[C@@H](C)CC)C(C)C)C(=O)N[C@@H](Cc2c[nH]c3ccccc23)C(=O)N[C@@H](CC(C)C)C(=O)N[C@@H](CCCNC(=N)N)C(=O)N1)C(=O)N[C@@H](CC(C)C)C(=O)N[C@@H](CCC(N)=O)C(=O)N[C@@H](CC(=O)O)C(=O)N[C@H](C(N)=O)C(C)C` [[Ile^27]cyclo(Glu^22—Lys^26)—hPTH—(1-31)-NH2] (H-SVSEIQLMHNLGKHLNSMERVEWLRKILQDV-NH2; lactam 22-26), the EC50 [1] is reported as 9 nM.
In the case of `CC[C@H](C)[C@H](NC(=O)[C@H](CCC(=O)O)NC(=O)[C@H](CO)NC(=O)[C@@H](NC(=O)[C@@H](N)CO)C(C)C)C(=O)N[C@@H](CCC(N)=O)C(=O)N[C@@H](CC(C)C)C(=O)N[C@@H](CCSC)C(=O)N[C@@H](Cc1c[nH]cn1)C(=O)N[C@@H](CC(N)=O)C(=O)N[C@@H](CC(C)C)C(=O)NCC(=O)N[C@@H](CCCCN)C(=O)N[C@@H](Cc1c[nH]cn1)C(=O)N[C@@H](CC(C)C)C(=O)N[C@@H](CC(N)=O)C(=O)N[C@@H](CO)C(=O)N[C@@H](CCSC)C(=O)N[C@@H](CCC(=O)O)C(=O)N[C@@H](CCCNC(=N)N)C(=O)N[C@H](C(=O)N[C@@H](CCC(=O)O)C(=O)N[C@@H](Cc1c[nH]c2ccccc12)C(=O)N[C@@H](CC(C)C)C(=O)N[C@@H](CCCNC(=N)N)C(=O)N[C@@H](CCCCN)C(=O)N[C@@H](CCCCN)C(=O)N[C@@H](CC(C)C)C(=O)N[C@@H](CCC(N)=O)C(=O)N[C@@H](CC(=O)O)C(N)=O)C(C)C` [peptide 6, hPTH-(1-30)-NH2] (H-SVSEIQLMHNLGKHLNSMERVEWLRKKLQD-NH2), the “reduction of tail artery pressure” value ([2]; injection into a femoral vein) is reported as 42.4-67.1%, the “reduction of tail artery pressure” value ([2]; subcutaneous injection) is reported as 8.5-36.2% and the “time to reduction of tail artery pressure” value ([2]; subcutaneous injection) is reported as 2 to 19 min.
